# Assay results as given in PubChem BioAssay AID540256 (National Center for Advancing Translational Sciences (NCATS), 2011).
# About 3,700 (1.2%) of roughly 300,000 compounds were called active. The inconclusive results got no clear call from the source; some entries with a clear call stand among them for comparison. Calls follow the shape of the full dose curve; tested in HEK293 cells. Potencies of inconclusive entries are doubtful fits and often do not repeat.
# Assay: qHTS for Inhibitors of binding or entry into cells for Lassa Virus; also: nearly all actives have a fitted effect of over 50% in size
# Conditions: Lassa virus pseudotype entry inhibition, cell reporter; activity change, negative = inhibition: at 37.9 µM (top of the series) unless noted
# % is scaled to controls: 0 for no effect and ±100 for the full control effect; potency is read from the fitted curve at half-maximal effect.
Structure (SMILES),"activity change, negative = inhibition",Potency
Nc1cnc(-c2ccccc2)nc1Cl,inactive: -1.1%,–
Cc1ccc(S(=O)(=O)N(C)CC(=O)OCC(=O)NC(=O)Nc2ccc3c(c2)OCCO3)cc1,–,"inconclusive: 3.98 µM [activator, single point]"
Cc1c(C(=O)N2CCOCC2)sc2ncn(CC(=O)N3CCC(C)CC3)c(=O)c12,inactive: 3.32%,–
COc1ccccc1N1CCN(CCN(C(=O)C2CCCCC2)c2ccccn2)CC1,–,"inconclusive: 10.3 µM [inhibitor, partial curve, poor fit]"
Cn1nnnc1SCCNCc1cc(Br)ccc1OCc1ccccc1Cl,–,"inconclusive: 35.5 µM [inhibitor, single point]"
CCC(C)(C)n1nnnc1CN1CCC(c2nc3ccc(C)cc3[nH]2)CC1,–,"inconclusive: 16.4 µM [inhibitor, single point]"
CCOC(=O)c1c(C)c(C(=O)NCC2CCCO2)c(C)n1C (stereo not given),inactive: -10.2%,–
Cc1ccc(OCCCCn2ccnc2)c(Cl)c1,inactive: 5.45%,–
COc1ccc(-c2sc(Nc3ccc(F)c(F)c3F)nc2CCC(=O)NN)cc1,–,"inconclusive: 35.5 µM [inhibitor, single point]"
Cc1nnc(SCc2cc(=O)[nH]c(Nc3nc(C)c4cc(C)c(C)cc4n3)n2)s1,inactive: -6.75% [at 46.1 µM],–
COc1cc(OC)cc(C(=O)N[C@H](C(=O)OCC(=O)NC(=O)NC(C)(C)C)C(C)C)c1,–,"inconclusive: 35.5 µM [inhibitor, single point]"
CSc1ccccc1OCc1cc(C(=O)NC(C)Cn2cncn2)no1 (stereo not given),–,"inconclusive: 7.08 µM [inhibitor, single point]"
Cn1c(N)c(C(=O)Nc2cccc(Cl)c2)c(=O)n(C)c1=O,inactive: 24.3%,–
Oc1ccc(C2C(c3ccccc3)=NN=C(c3ccc(Cl)cc3)N2O)c(O)c1 (stereo not given),inactive: -4.07%,–
Cc1cc(C)n(-c2ccc(C(=O)OC(C)C)cc2)n1,–,"inconclusive: 6.51 µM [activator, single point]"
COc1ccc(C(CC(=O)Nc2ccc(C(C)=O)cc2)N2Cc3ccccc3C2=O)cc1 (stereo not given),–,"inconclusive: 20 µM [activator, partial curve]"
CCN=c1scc(-c2ccco2)n1/N=C/c1ccc(OC)c(O)c1,–,"inconclusive: 2.82 µM [activator, single point]"
CCOC(=O)c1c(C)[nH]c(C)c1C(=O)COC(=O)c1cc(OC)cc(OC)c1,–,"inconclusive: 10 µM [inhibitor, partial curve, poor fit]"
CCOC(=O)c1cnn(-c2cc(Oc3cccc(C)c3)ncn2)c1N,–,"inconclusive: 8.91 µM [inhibitor, partial curve]"
CN(C)CCN(Cc1ccccc1)c1ccccn1,–,"inconclusive: 29.1 µM [inhibitor, single point]"

# 2 records drawn at random from the list so far:
Structure (SMILES),"activity change, negative = inhibition",Potency
CCOC(=O)c1c(C)[nH]c(C)c1C(=O)COC(=O)c1cc(OC)cc(OC)c1,–,"inconclusive: 10 µM [inhibitor, partial curve, poor fit]"
COc1ccc(-c2sc(Nc3ccc(F)c(F)c3F)nc2CCC(=O)NN)cc1,–,"inconclusive: 35.5 µM [inhibitor, single point]"
